What all share (assay): log2 fold change, soluble protein after heating vs DMSO (PISA); higher = thermal stabilisation; K562 lysate, 10 uM; active = over 0.2 and 3.5 SD of the protein, either way, in both replicates (recomputed)
Compound in assay [1]: Cc1cn(-c2cc(NC(=O)c3ccc(C)c(Nc4nccc(-c5cccnc5)n4)c3)cc(C(F)(F)F)c2)cn1 [nilotinib]
In short, it runs like this:
(§1)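 Values give the log-two fold change in thermal stability against solvent controls, from duplicates. Crude K562 extract at 1 mg/mL protein, made by dounce homogenisation in PBS pH 7.4 with 1 mM MgCl2, was treated with 10 μM compound for 30 min. After 3 min heating across 48°C-58°C, aliquots were pooled, adjusted to 0.5% NP-40 at 4°C and centrifuged at 21,000xg for 90 min. The supernatant was measured by TMTpro 16plex LC-MS/MS with channel sums equalised.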

By UniProt entry, the sequences of proteins in these tests, tags left out. Where a name states a change or a piece, a line headed by the entry shows the natural chain unless it says otherwise.
UniProt Q9HB19: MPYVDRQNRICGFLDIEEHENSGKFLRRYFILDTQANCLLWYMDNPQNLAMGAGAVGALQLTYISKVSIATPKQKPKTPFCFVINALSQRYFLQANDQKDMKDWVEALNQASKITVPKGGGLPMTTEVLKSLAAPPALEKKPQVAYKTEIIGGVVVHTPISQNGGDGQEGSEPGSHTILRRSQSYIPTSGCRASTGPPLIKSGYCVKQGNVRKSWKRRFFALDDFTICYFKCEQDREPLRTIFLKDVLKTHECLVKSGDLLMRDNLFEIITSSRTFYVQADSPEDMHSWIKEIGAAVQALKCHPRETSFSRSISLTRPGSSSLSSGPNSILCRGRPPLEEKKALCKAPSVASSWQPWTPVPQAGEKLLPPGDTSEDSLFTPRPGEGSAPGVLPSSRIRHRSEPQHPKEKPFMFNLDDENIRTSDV
UniProt Q8N2A8: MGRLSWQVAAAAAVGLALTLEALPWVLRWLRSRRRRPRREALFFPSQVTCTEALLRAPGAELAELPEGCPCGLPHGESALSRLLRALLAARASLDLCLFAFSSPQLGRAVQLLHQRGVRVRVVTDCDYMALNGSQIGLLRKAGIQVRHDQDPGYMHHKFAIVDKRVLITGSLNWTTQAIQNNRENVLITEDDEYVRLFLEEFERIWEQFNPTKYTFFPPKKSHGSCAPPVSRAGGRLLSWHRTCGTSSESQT
UniProt O00329: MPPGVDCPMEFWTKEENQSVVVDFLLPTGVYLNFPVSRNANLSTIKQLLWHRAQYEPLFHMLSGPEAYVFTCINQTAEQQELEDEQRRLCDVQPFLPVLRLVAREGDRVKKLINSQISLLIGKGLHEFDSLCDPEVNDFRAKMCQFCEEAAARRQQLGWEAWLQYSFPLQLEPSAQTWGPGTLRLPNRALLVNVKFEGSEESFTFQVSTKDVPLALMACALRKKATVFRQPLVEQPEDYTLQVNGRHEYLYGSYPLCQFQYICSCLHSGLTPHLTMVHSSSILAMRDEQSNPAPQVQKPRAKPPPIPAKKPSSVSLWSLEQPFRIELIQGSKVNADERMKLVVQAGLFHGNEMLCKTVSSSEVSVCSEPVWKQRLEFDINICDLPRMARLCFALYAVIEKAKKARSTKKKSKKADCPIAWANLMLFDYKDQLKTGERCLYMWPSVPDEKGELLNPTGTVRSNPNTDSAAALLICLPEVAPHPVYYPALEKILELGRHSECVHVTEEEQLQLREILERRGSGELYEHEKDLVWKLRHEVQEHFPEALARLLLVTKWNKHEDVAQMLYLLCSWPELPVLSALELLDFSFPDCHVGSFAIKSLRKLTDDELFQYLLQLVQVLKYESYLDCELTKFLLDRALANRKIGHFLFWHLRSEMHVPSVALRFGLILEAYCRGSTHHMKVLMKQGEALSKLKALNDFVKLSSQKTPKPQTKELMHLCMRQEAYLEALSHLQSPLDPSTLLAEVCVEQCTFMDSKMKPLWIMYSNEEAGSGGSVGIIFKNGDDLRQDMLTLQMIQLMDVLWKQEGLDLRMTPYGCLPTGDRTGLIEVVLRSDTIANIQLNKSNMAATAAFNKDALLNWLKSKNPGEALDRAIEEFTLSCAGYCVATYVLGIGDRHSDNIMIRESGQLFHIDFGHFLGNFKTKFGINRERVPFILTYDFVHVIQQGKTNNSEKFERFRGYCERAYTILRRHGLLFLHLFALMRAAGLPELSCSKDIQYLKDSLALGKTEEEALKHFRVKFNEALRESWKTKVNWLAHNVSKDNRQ
UniProt O00562: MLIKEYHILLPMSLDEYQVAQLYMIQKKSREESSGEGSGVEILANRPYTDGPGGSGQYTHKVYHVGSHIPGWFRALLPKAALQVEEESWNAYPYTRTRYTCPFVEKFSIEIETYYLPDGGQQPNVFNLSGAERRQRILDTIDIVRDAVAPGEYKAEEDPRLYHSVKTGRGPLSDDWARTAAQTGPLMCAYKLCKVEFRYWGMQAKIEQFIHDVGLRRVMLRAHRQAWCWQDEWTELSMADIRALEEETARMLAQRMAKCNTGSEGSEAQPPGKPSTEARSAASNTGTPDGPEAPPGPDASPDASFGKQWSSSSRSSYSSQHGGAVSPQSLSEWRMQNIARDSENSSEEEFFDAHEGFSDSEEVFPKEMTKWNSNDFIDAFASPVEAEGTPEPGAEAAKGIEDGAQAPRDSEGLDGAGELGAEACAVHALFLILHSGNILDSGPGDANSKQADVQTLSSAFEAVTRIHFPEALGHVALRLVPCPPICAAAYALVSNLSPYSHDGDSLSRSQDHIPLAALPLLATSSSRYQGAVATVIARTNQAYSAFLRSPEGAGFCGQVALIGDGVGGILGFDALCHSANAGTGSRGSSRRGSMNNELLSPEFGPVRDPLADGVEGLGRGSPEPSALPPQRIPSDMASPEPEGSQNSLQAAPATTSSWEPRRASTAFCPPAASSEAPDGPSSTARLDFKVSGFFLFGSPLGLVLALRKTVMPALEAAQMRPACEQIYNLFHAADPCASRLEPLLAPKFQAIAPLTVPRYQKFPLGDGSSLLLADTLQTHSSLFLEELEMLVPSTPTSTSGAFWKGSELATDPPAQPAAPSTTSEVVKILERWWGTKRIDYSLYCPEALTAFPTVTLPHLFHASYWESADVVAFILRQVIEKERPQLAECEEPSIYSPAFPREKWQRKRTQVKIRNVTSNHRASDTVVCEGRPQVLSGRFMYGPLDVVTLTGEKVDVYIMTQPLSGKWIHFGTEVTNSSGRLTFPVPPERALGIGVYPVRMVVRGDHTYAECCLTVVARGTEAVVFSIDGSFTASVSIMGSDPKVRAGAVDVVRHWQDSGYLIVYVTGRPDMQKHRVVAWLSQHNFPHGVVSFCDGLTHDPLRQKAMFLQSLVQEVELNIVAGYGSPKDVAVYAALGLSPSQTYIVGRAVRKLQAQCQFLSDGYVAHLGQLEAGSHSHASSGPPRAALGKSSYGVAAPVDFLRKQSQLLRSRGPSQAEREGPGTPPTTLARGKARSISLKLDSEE
UniProt Q7Z3Z4: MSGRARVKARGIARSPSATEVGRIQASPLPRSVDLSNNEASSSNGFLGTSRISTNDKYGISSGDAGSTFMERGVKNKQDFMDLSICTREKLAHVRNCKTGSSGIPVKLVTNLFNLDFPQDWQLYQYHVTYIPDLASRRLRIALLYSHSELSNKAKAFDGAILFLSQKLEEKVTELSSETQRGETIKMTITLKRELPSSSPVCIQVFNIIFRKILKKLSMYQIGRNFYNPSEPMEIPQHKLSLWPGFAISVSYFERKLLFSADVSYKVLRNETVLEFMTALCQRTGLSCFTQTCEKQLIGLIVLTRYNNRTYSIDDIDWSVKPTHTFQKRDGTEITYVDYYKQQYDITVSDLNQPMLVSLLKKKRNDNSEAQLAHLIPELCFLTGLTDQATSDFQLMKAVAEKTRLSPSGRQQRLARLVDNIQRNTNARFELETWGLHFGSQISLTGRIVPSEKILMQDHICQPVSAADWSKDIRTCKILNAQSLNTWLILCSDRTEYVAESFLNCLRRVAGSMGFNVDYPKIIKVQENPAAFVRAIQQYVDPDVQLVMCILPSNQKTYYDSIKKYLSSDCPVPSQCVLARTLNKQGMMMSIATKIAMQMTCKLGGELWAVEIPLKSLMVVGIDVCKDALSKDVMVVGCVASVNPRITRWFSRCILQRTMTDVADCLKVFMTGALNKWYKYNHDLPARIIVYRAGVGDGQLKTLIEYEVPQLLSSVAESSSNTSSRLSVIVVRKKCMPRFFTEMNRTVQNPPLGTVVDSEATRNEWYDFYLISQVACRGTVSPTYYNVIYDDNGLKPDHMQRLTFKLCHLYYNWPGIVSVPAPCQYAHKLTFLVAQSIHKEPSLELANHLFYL
UniProt Q9P1W9: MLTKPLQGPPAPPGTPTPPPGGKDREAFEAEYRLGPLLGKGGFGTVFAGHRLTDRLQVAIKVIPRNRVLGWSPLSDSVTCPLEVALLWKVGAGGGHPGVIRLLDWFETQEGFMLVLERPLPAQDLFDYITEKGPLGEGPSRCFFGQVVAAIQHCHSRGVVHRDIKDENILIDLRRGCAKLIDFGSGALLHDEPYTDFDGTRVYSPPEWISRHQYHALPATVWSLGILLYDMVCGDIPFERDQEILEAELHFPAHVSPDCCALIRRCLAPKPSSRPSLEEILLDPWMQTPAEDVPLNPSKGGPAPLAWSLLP
UniProt O94880: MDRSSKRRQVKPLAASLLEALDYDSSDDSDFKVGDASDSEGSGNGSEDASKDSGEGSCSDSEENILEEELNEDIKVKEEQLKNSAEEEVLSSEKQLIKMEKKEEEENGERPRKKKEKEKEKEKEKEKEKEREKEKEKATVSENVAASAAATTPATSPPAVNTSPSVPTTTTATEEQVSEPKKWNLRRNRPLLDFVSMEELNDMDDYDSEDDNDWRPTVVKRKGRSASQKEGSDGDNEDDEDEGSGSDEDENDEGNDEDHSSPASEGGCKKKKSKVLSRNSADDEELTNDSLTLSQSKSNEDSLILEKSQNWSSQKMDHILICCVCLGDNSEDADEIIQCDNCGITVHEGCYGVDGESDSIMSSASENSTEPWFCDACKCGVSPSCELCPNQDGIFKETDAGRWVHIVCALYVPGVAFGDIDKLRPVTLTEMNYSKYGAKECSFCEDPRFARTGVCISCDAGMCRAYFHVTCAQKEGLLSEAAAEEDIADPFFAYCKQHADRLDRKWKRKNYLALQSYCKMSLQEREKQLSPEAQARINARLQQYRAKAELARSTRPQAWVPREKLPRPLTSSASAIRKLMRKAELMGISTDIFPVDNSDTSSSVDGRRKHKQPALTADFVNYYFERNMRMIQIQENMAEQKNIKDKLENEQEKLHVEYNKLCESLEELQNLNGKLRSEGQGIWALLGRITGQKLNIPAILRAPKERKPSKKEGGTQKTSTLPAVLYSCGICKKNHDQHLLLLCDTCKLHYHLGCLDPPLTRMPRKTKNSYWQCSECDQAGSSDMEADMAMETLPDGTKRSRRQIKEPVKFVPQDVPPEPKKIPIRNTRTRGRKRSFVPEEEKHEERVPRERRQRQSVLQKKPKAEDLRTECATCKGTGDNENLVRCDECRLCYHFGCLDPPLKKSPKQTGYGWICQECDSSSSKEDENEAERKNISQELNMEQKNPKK
UniProt P42336, whole entry, looked up: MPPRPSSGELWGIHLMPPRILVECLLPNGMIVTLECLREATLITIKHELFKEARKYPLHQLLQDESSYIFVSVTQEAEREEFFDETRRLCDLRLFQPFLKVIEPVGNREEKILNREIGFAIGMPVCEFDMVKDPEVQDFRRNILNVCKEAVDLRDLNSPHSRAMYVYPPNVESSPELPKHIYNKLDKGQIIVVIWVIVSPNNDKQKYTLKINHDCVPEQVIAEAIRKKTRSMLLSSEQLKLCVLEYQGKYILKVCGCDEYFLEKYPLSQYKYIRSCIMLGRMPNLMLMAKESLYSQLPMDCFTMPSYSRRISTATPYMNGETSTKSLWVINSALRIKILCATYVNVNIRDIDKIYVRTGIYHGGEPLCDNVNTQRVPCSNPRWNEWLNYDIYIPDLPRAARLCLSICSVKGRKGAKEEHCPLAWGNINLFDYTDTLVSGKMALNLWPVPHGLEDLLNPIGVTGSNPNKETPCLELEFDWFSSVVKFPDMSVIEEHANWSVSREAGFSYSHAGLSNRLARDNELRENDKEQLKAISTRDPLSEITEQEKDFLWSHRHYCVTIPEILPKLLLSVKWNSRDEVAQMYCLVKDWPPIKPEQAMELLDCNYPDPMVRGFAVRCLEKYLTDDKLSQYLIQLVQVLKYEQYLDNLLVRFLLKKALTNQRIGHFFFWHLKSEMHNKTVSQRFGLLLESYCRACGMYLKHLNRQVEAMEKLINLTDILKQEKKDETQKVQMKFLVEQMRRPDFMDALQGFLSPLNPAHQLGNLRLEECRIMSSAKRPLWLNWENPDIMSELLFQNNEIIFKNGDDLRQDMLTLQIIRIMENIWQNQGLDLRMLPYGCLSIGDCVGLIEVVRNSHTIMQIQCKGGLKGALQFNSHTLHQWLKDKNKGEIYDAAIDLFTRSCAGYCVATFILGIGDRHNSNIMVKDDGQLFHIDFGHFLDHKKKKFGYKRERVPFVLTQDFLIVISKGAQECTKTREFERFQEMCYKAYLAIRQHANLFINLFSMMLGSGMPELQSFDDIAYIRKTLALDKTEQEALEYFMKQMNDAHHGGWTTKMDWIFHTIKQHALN
UniProt Q9HB20: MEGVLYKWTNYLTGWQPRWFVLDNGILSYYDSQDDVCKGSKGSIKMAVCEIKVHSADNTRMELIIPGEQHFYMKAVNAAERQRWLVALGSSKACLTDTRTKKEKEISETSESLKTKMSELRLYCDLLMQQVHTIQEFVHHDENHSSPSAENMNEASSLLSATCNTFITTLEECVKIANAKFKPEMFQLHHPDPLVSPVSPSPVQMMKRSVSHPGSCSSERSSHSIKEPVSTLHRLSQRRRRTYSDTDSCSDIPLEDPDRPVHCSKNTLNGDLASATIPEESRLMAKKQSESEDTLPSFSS

Compound in assay [2]: Cc1nc(Nc2n[nH]c3c2CN(C(=O)N[C@H](CN(C)C)c2ccccc2)C3(C)C)c2sccc2n1
An outline of the steps: as §1

Compound in assay [3]: Cc1ncc(-c2ccnc(Nc3ccc(S(C)(=O)=O)cc3)n2)n1C(C)C
In short, it runs like this:
as §1

Compound in assay [4]: Cn1cc(CNCC2CCN(c3ncc(C(=O)NO)cn3)CC2)c2ccccc21 [quisinostat]
In short, it runs like this: as §1

Compound in assay [5]: Cn1cncc1[C@@](N)(c1ccc(Cl)cc1)c1ccc2c(c1)c(-c1cccc(Cl)c1)cc(=O)n2C [tipifarnib]
An outline of the steps: as §1

Compound in assay [6]: NC(=O)Nc1cc(-c2cccc(F)c2)sc1C(=O)N[C@H]1CCCNC1
In short, it runs like this:
as §1

Compound in assay [7]: NC1(c2ccc(-c3nc4ccn5c(=O)[nH]nc5c4cc3-c3ccccc3)cc2)CCC1
In short, it runs like this:
as §1

Compound in assay [8]: NCC(=O)Nc1ccc(-n2nc(C(F)(F)F)cc2-c2ccc3c(ccc4ccccc43)c2)cc1
In short, it runs like this: as §1

Compound in assay [9]: O=C(CCCCCCC(=O)Nc1ccccc1)NO [vorinostat]
An outline of the steps:
as §1

Compound in assay [10]: O=C(O)c1ccc2c(c1)nc(Nc1cccc(Cl)c1)c1ccncc12 [silmitasertib]
An outline of the steps: as §1

Compound in assay [11]: O=C1NC(=O)C(c2cnc3ccccn23)=C1c1cn2c3c(cc(F)cc13)CN(C(=O)N1CCCCC1)CC2
In short, it runs like this: as §1

Compound in assay [12]: c1cn2cc(-c3ccc4cn[nH]c4c3)nc(Nc3ccc(N4CCOCC4)cc3)c2n1 [entospletinib]
In short, it runs like this:
as §1

Compound in assay [13]: NC(=O)c1cnc(N[C@@H]2CCCC[C@@H]2N)nc1Nc1cccc(-n2nccn2)c1
An outline of the steps:
as §1

Compound in assay [14]: Cc1nc(Nc2ncc(C(=O)Nc3c(C)cccc3Cl)s2)cc(N2CCN(CCO)CC2)n1 [dasatinib]
In short, it runs like this:
as §1

Compound in assay [15]: Cn1cc(-c2ccc3c(c2)CCN3C(=O)Cc2cccc(C(F)(F)F)c2)c2c(N)ncnc21
In short, it runs like this:
as §1

This is an account of results in the supplement of paper PMC10849652.

Some of the results follow.

As to PHF8 (UniProt Q9UPP1), the log2 fold change is inactive: 0.165 in assay [1]; inactive: -0.145 in assay [2]; inactive: -0.005 in assay [3]; inactive: -0.085 in assay [4]; inactive: 0.018 in assay [5]; inactive: 0.037 in assay [6]. The log2 fold change in assay [7] was inactive: 0.197; in assay [8], inactive: 0.103; in [9], inactive: 0.408; in [10], inactive: -0.106; in assay [11] it was inactive: -0.004; in assay [12] it was inactive: 0.13.
For the target PLCG2 (UniProt P16885), the log2 fold change was inactive: -0.003 in assay [1]; inactive: -0.035 in assay [2]; inactive: 0.004 in assay [3]; inactive: -0.064 in assay [4]; inactive: 0.05 in assay [5]; inactive: -0.013 in [6]. The log2 fold change was inactive: 0.041 in assay [13]; inactive: 0.033 in [7]; inactive: 0.2 in assay [8]; inactive: -0.044 in assay [9]; inactive: 0.011 in assay [10]; inactive: -0.053 in assay [11]. The log2 fold change in assay [12] is inactive: -0.038.
Turning to PLEKHA2 (UniProt Q9HB19), the log2 fold change is inactive: -0.03 in assay [1]; inactive: 0.06 in assay [2]; inactive: 0.033 in assay [14]; inactive: -0.022 in [3]; inactive: -0.017 in assay [15]; inactive: -0.194 in [4]. The log2 fold change in assay [5] was inactive: -0.021; in assay [6], inactive: 0.004; in assay [7] it was inactive: -0.04; in assay [9], inactive: -0.184; in [10] it was inactive: 0.07; in assay [11], inactive: -0.098.
Take PLD6 (UniProt Q8N2A8): the log2 fold change in [14] was inactive: 0.175; in assay [15], inactive: 0.054.
With PIDD1 (UniProt Q9HB75), the figures for the log2 fold change in [14] and in assay [15] were inactive: -0.094 and inactive: 0.218, respectively.
Consider PLCH1 (UniProt Q4KWH8), for which the log2 fold change is inactive: -0.001 in assay [14]; inactive: 0.02 in assay [15]; inactive: 0.054 in [4]; inactive: -0.052 in assay [6]; inactive: 0.034 in assay [13]; inactive: -0.001 in [7]. Also, the log2 fold change is inactive: -0.05 in assay [8]; inactive: 0.043 in assay [9]; inactive: 0.026 in assay [10]; inactive: -0.065 in assay [11]; inactive: 0.055 in assay [12].
PIK3CD (UniProt O00329): the log2 fold change was inactive: 0.059 in assay [1]; inactive: 0.006 in [2]; inactive: 0.122 in assay [3]; inactive: 0.151 in assay [15]; inactive: -0.091 in [4]; inactive: -0.053 in assay [5]. Besides, the log2 fold change in assay [6] was inactive: 0.02; in assay [13], inactive: 0.001; in assay [7], inactive: 0.127; in [8] it was inactive: -0.059; in assay [9], active: -0.516; in assay [10], inactive: 0.223. Also, in assay [11], the log2 fold change is inactive: -0.004.
PIGT, A0A1W2PP13: the log2 fold change is inactive: -0.238 in assay [1]; inactive: 0.099 in [2]; inactive: 0.089 in assay [3]; inactive: -0.012 in assay [5]; inactive: 0.032 in [13].
As to PIEZO2 isoform 4 (UniProt Q9H5I5), the log2 fold change in assay [1] is inactive: 0.048; in assay [2], inactive: -0.024; in assay [3], inactive: 0.008; in assay [4] it was inactive: -0.091; in [5] it was inactive: 0.056; in assay [6], inactive: 0.092. The log2 fold change in [13] was inactive: 0.03; in assay [7] it was inactive: -0.009; in assay [9], inactive: 0.102; in assay [10], inactive: 0.035; in assay [11] it was inactive: 0.031; in assay [12] it was inactive: 0.029.
Consider PITPNM1 (UniProt O00562), for which the log2 fold change in assay [1] was inactive: -0.053; in assay [2] it was inactive: -0.038; in assay [3] it was inactive: 0.014; in assay [4], inactive: -0.368; in assay [5], inactive: -0.073; in assay [6] it was inactive: 0.038. For the same target, the log2 fold change in assay [11] was inactive: -0.062.
Consider PIWIL4 (UniProt Q7Z3Z4), for which the log2 fold change was inactive: 0.01 in assay [1], inactive: 0.005 in assay [2], inactive: -0.031 in assay [3] and inactive: 0.053 in assay [5].
For PIM2 (UniProt Q9P1W9), the log2 fold change in [1] is inactive: 0.084; in [2], inactive: 0.15; in assay [14] it was inactive: 0.201; in [3] it was inactive: 0.077; in assay [15] it was inactive: -0.267; in assay [5] it was inactive: 0.174.
In the case of PHF14 (UniProt O94880), the log2 fold change is inactive: -0.127 in [1]; inactive: -0.203 in assay [2]; inactive: -0.1 in [14]; inactive: 0.082 in [3]; inactive: 0.085 in [15]; inactive: 0.073 in [5]. Also, the results for the log2 fold change in assay [13], in assay [8] and in assay [12] were inactive: -0.077, inactive: -0.062 and inactive: 0.039, respectively.
On to PIK3CA (UniProt P42336), for which the log2 fold change in assay [1] was inactive: 0.082; in assay [2] it was inactive: 0.011; in assay [3] it was inactive: 0.02; in assay [15], inactive: -0.021; in assay [4], inactive: 0.038; in assay [5], inactive: -0.034. Further, the log2 fold change in assay [6] was inactive: 0.004; in assay [13] it was inactive: 0.073; in assay [7], inactive: 0.009; in [8], inactive: -0.024; in [9] it was inactive: -0.061; in [10], inactive: 0.074. The log2 fold change was inactive: -0.004 in assay [11] and inactive: -0.046 in assay [12].
On to PLEKHA8 (UniProt Q96JA3), for which the log2 fold change in assay [1] is inactive: -0.084; in [2], inactive: 0.047; in assay [14], inactive: -0.029; in assay [3], inactive: -0.13; in assay [15] it was inactive: -0.035; in assay [5], inactive: 0.196. Besides, in [12], the log2 fold change was inactive: -0.187.
Regarding PLEKHA3 (UniProt Q9HB20), the log2 fold change in assay [1] was inactive: -0.084; in assay [2], inactive: -0.08; in assay [14], inactive: -0.176; in [3], inactive: 0.13; in assay [15] it was inactive: -0.066; in [4] it was inactive: -0.124. Moreover, the log2 fold change in [5] is inactive: 0.16; in assay [6], inactive: 0.05; in [11], inactive: 0.065.
